From PMC11199634
These are yes or no findings as the source states them, for the method shown. Binding seen in cells or lysates may run through a third protein. Some entries that bind do so weakly or less than the wild type. Sequences can lack the tags named with a protein.

Chains of the proteins cited; added tags and fusions are not shown.
UniProt Q9NYF8: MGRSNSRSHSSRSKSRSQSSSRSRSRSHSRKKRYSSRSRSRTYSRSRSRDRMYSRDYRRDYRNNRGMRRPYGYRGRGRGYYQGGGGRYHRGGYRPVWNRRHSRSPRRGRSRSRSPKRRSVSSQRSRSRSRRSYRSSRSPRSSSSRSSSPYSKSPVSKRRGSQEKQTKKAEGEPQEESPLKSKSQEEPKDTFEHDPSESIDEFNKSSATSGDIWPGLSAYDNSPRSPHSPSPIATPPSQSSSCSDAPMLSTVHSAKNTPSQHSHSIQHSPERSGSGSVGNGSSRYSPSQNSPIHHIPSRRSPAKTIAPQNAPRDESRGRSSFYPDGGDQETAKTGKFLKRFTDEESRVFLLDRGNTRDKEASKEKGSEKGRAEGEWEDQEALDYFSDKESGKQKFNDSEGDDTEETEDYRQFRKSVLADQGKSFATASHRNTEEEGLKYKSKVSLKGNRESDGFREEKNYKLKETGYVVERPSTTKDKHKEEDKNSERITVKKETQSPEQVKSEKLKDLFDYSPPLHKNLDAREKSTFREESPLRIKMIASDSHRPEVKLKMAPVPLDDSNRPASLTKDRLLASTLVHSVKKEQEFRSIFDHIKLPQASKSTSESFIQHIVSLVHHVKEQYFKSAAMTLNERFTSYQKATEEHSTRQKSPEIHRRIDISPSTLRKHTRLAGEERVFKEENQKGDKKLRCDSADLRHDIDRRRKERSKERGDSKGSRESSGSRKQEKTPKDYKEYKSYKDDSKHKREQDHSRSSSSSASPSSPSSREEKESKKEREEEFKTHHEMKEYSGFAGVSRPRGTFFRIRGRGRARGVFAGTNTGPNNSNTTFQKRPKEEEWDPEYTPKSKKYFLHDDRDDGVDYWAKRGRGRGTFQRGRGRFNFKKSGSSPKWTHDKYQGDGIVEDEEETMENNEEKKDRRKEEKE
UniProt O60927: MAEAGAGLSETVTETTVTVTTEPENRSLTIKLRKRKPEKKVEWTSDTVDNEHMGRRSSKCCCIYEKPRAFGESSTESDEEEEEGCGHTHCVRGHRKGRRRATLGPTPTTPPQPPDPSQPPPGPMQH

Assays:
[1] = molecular target: T1, EGFP-SDS22-W302* (human) (UniProt Q15435); test: co-IP; EGFP-trap (anti-EGFP nanobodies on agarose, 2 h, 4 °C) of transiently expressed EGFP fusions from HEK293T lysates (20 mM Tris pH 7.9, 0.3 M NaCl, 0.5% Triton X-100); endogenous partners by immunoblot
T1 sequence: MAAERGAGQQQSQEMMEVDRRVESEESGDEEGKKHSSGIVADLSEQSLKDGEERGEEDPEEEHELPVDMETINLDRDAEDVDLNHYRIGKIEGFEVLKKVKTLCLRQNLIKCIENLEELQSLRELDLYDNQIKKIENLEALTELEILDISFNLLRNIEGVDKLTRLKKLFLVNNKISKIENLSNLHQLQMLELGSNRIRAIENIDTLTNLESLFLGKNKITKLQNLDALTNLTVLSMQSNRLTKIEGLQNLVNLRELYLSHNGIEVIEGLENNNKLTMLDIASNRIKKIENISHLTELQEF

[2] = molecular target: T2, EGFP-SDS22-WT (human) (UniProt Q15435); test: as above
T2 sequence: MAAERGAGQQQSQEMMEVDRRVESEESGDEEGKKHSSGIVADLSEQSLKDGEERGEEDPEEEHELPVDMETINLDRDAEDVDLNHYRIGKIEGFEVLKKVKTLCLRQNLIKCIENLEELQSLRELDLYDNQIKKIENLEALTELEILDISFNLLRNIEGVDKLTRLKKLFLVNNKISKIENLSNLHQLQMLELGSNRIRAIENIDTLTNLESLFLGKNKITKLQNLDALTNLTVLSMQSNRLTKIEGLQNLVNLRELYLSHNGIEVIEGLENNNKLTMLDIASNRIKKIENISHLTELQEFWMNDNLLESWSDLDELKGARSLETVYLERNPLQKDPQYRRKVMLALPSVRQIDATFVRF

[3] = molecular target: T2, EGFP-SDS22-WT (human); test: co-IP; ectopically expressed SDS22-WT, SDS22-KR7A or a PP1–SDS22 fusion, pulldown (Supplementary Fig. 4h); tag and cells not given

Row | Substance | binding [1] | binding [2] | binding [3]
1 | BCLAF1 (endogenous, HEK293T) (from UniProt Q9NYF8 1-920) | no binding | binds | binds
2 | Inhibitor-3 (endogenous, HEK293T) (from UniProt O60927 1-126) | no binding | binds | binds
